The supplement of paper PMC12823440, “Inhibitors supercharge kinase turnover through native proteolytic circuits” (Nature, 2025)
Counter-ions that a name gives are not always drawn. The list shows a part of the results. The calls rarely recur for the same compound in another form.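 Kinases were expressed as nanoluciferase fusions in K562 cells and luminescence was read every 4 h between 2 and 18 h as percent of control, DMSO set to 100% and a positive control to 0%. A time point counts as decreased when the signal drops significantly (2 sigma). The hit call is the authors' own, does not follow from the count of time points alone, and its rule is not shown.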

Chains of the proteins cited; added tags and fusions are not shown. Lines headed by an entry give the natural chain unless they say otherwise; changes in a name come on top.
UniProt P07949, whole entry M918T, looked up: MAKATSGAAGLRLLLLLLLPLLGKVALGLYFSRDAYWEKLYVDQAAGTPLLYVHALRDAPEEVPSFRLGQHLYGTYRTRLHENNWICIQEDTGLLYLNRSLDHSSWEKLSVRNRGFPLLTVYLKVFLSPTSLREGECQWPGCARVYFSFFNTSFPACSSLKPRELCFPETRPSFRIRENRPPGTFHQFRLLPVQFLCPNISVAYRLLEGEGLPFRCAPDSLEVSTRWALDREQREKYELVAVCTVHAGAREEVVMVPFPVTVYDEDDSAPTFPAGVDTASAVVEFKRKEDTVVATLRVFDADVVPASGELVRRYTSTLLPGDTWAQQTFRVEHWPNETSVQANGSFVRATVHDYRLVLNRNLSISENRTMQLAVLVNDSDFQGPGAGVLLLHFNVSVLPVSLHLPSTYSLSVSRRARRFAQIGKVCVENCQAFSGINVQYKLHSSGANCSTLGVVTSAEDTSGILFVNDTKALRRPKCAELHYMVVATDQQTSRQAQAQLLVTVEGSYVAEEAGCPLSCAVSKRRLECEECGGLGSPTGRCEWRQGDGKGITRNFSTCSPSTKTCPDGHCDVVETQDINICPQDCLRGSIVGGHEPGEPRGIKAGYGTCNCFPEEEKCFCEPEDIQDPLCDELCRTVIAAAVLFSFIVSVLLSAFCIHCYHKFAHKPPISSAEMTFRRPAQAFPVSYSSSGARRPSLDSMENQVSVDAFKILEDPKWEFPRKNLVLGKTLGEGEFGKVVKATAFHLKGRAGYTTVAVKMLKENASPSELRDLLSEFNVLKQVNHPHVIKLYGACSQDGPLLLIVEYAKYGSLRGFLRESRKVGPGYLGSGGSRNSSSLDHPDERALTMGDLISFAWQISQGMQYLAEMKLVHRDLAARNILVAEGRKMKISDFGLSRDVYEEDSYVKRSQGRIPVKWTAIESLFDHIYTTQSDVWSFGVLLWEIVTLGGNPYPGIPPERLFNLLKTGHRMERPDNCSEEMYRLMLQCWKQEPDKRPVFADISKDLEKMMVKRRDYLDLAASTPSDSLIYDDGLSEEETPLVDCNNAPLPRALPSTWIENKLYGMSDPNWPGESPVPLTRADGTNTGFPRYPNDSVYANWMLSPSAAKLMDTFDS
UniProt Q9BRS2: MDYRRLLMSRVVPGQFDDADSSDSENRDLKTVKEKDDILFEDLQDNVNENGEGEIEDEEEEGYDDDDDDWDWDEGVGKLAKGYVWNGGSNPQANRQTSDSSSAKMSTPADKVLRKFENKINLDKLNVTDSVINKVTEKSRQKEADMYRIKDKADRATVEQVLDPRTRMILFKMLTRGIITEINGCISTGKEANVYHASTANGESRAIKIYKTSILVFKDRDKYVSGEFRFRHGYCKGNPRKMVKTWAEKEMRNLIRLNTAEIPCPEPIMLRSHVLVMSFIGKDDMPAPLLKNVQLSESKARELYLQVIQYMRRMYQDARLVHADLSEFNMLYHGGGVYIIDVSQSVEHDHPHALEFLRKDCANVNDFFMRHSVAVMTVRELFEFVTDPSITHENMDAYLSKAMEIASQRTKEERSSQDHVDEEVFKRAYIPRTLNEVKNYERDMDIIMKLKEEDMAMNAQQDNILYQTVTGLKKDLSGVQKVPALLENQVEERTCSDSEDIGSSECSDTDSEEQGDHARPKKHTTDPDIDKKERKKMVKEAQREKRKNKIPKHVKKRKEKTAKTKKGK

target: RET_M918T (clone: RET_mut) (UniProt P07949); experiment: kinase-Nluc reporter destabilization hit call (1 = scored as downregulated) (binary); higher = compound decreases kinase abundance; details: K562; 2-18 h

kinase-Nluc reporter destabilization hit call, inactive:
CC#CC(=O)N1CC[C@@H](n2c(=O)n(-c3ccc(Oc4ccccc4)cc3)c3c(N)ncnc32)C1 [Tirabrutinib] (10 µM) 0, C[C@@]1(c2ncncc2F)NC(=O)c2cc(-c3cn[nH]c3)ccc21 (10 µM) 0, COc1ccc(Cl)c(Nc2nc3ccccc3nc2NS(=O)(=O)c2cccc(NC(=O)C(C)(C)N)c2)c1 [Pilaralisib] (10 µM) 0, O=Nc1c(-c2c(O)[nH]c3ccc(I)cc23)[nH]c2ccccc12 [5-Iodo-indirubin-3'-monoxime] (10 µM) 0, COc1cc2nccc(Oc3ccc(NC(=O)NC4CC4)c(Cl)c3)c2cc1C(N)=O [Lenvatinib] (10 µM) 0, C[C@]1(O)CCN(c2nc(N3C[C@H](O)[C@@H](O)C3)cc(C(F)(F)F)c2C#N)C1 (10 µM) 0, Cn1cnc(Cn2ccc3ccc(CNCc4[nH]c5ccccc5c4[C@H]4NC(=O)c5ccc(O)cc54)cc32)c1 (10 µM) 0

target: RIOK1 (UniProt Q9BRS2); experiment: as above; details: K562; 2-18 h

kinase-Nluc reporter destabilization hit call, inactive:
O=C(CSC1=NCCN1)NC1CCCCCC1 [ICCB-19 (hydrochloride)] (2.5 µM) 0, CCCS(=O)(=O)Nc1ccc(F)c(C(=O)c2c[nH]c3ncc(-c4ccc(Cl)cc4)cc23)c1F [Vemurafenib] (10 µM) 0, Cc1ccc(OCCSc2ncccn2)c(Br)c1 [ZLN024 (hydrochloride)] (10 µM) 0, Nc1ncnc2c1c(-c1ccc(Oc3ccccc3)cc1)nn2C1CCCC1 (2.5 µM) 0, COc1ncc(Cl)cc1S(=O)(=O)Nc1ccc(F)c(C#Cc2cnc(N)nc2)c1F (2.5 µM) 0, Cc1ccc(CNc2ncnc3ccc(-c4ccc(CO)o4)cc23)o1 (10 µM) 0, NC(=O)c1nnc(N[C@@H]2CCCC[C@@H]2N)nc1Nc1cccc2cc[nH]c12 (10 µM) 0, CNc1nc(Nc2ccc(C(=O)N3CCOCC3)cc2OC)nc2[nH]cc(Cl)c12 (2.5 µM) 0, CCNc1nc(Nc2cc(F)c(C(=O)N3CCOCC3)cc2OC)ncc1C(F)(F)F [GNE-7915 (tosylate)] (10 µM) 0, CCN1CCN(Cc2ccc(Nc3ncc(F)c(-c4cc(F)c5nc(C)n(C(C)C)c5c4)n3)nc2)CC1 [Abemaciclib] (2 µM) 0, COCCNc1nc2ccc(C#CC3(O)CCCCC3)cc2n1-c1ccnc(N)n1 (10 µM) 0, OCCn1cc(-c2ccc3c(c2)CC/C3=N\O)c(-c2ccncc2)n1 (10 µM) 0, O=C1N[C@@H](Cc2c[nH]c3ccccc23)C(=O)N2CCC[C@@H]12 [Brevianamide F] (10 µM) 0, Cn1nccc1Nc1nccc(-c2ccn([C@H](CO)c3ccc(Cl)c(F)c3)c(=O)c2)n1 [Ravoxertinib] (10 µM) 0, O=C(NCCN1CCOCC1)c1cc2c(Oc3ccc(NC(=O)C4(C(=O)Nc5ccc(F)cc5)CC4)cc3)ccnc2[nH]1 [Tyrosine kinase inhibitor] (10 µM) 0, COc1cc2c(N3CCN(C(=O)Nc4ccc(OC(C)C)cc4)CC3)ncnc2cc1OCCCN1CCCCC1 [Tandutinib (hydrochloride)] (10 µM) 0, COc1cc(/C=C/C(=O)NCC(O)c2ccc(O)cc2)ccc1O (stereo not given) [N-Feruloyloctopamine] (2.5 µM) 0, COc1cc2nccc(Oc3ccc(NC(=O)NC4CC4)c(Cl)c3)c2cc1C(N)=O [Lenvatinib (mesylate)] (10 µM) 0, CN1CCN(c2cccc(Nc3nc4c(-c5ccc(S(C)(=O)=O)cc5)cccn4n3)c2)CC1 (10 µM) 0, C=C(CC[C@@H](C(=O)O)[C@H]1[C@H](O)C[C@@]2(C)C3=C(CC[C@]12C)[C@@]1(C)CC[C@H](OC(C)=O)C(C)(C)[C@@H]1CC3)C(C)C [Pachymic acid] (10 µM) 0, O=c1[nH]c(=O)n([C@@H]2O[C@H](CO)[C@@H](O)[C@@H]2O)cc1/C=C/Br [Sorivudine] (10 µM) 0, NC(=O)c1ccc(-c2nc(-c3ccc4c(c3)OCCO4)c(-c3ccccn3)[nH]2)cc1 (10 µM) 0, CC#CC(=O)Nc1ccc2ncnc(Nc3cccc(Br)c3)c2c1 (10 µM) 0, CCc1c(C(=O)NNC(=O)C(O)c2cc(F)cc(F)c2)ccc(O)c1C (stereo not given) (10 µM) 0, CC(=O)c1c(C)cc2cccc(O)c2c1O [Nepodin] (10 µM) 0, Cc1c(-c2c(F)cc(C(N)=O)c3[nH]c4c(c23)CC[C@H](C(C)(C)O)C4)cccc1-n1c(=O)c2cccc(F)c2n(C)c1=O (2.5 µM) 0, CCc1cc2c(cc1N1CCC(N3CCOCC3)CC1)C(C)(C)c1[nH]c3cc(C#N)ccc3c1C2=O [Alectinib] (10 µM) 0, FC(F)c1nc2ccccc2n1-c1nc(N2CCOCC2)nc(N2CCOCC2)n1 (2 µM) 0, FC(F)(c1ccc2ncccc2c1)c1nnc2ccc(-c3ccncc3)nn12 (10 µM) 0, Cn1cc(-c2cnn3c(N)c(Br)c([C@@H]4CCCNC4)nc23)cn1 (2.5 µM) 0, C[C@@H]1COCCN1c1cc(C2([S@@](C)(=N)=O)CC2)nc(-c2ccnc3[nH]ccc23)n1 [(S)-Ceralasertib] (10 µM) 0, CC#CC(=O)N1CC[C@@H](n2c(=O)n(-c3ccc(Oc4ccccc4)cc3)c3c(N)ncnc32)C1 [Tirabrutinib] (10 µM) 0, C[C@@]1(c2ncncc2F)NC(=O)c2cc(-c3cn[nH]c3)ccc21 (10 µM) 0, COc1ccc(Cl)c(Nc2nc3ccccc3nc2NS(=O)(=O)c2cccc(NC(=O)C(C)(C)N)c2)c1 [Pilaralisib] (10 µM) 0, O=Nc1c(-c2c(O)[nH]c3ccc(I)cc23)[nH]c2ccccc12 [5-Iodo-indirubin-3'-monoxime] (10 µM) 0, COc1cc2nccc(Oc3ccc(NC(=O)NC4CC4)c(Cl)c3)c2cc1C(N)=O [Lenvatinib] (10 µM) 0, C[C@]1(O)CCN(c2nc(N3C[C@H](O)[C@@H](O)C3)cc(C(F)(F)F)c2C#N)C1 (10 µM) 0, Cn1cnc(Cn2ccc3ccc(CNCc4[nH]c5ccccc5c4[C@H]4NC(=O)c5ccc(O)cc54)cc32)c1 (10 µM) 0
